Results are given in words; binding and its absence hold for the method and conditions named. In cells and extracts the contact can be indirect. Here binding means that the protein was enriched with, or labelled near, the bait; the list need not be complete.
Target: TAP-MNV VPg (murine norovirus (MNV)) (UniProt Q80J95)
Test: affinity purification with mass spectrometry; large scale tandem affinity purification of TAP-MNV VPg from induced 293 cells (CdCl2-inducible pMEP4 or tetracycline-inducible pcDNA4:TO, the latter with and without ribonuclease); SDS-PAGE, trypsin, mass spectrometry; proteins found with the TAP tag alone removed

The chains behind the UniProt entries cited, without tags or fusion partners.
UniProt P55884: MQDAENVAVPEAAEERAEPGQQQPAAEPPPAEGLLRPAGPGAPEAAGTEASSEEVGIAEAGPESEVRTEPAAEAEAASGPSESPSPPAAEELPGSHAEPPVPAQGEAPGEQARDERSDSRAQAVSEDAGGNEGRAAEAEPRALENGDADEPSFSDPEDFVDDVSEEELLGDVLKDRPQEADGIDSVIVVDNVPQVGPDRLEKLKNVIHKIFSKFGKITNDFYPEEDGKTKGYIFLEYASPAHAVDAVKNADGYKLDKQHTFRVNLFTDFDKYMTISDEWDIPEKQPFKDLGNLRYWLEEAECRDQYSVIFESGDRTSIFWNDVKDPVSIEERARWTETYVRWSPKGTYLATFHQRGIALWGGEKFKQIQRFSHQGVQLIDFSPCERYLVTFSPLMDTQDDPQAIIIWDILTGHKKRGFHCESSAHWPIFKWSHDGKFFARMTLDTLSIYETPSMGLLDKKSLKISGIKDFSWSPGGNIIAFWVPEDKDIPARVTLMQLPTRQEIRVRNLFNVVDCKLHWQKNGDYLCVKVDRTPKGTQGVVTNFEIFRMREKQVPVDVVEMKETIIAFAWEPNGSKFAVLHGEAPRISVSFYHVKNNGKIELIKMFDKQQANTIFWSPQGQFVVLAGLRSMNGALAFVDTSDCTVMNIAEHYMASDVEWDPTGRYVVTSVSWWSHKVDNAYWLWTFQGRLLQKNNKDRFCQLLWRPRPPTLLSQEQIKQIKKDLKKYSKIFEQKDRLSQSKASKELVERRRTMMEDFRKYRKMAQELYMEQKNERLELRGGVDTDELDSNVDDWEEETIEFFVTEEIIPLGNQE
UniProt Q99613: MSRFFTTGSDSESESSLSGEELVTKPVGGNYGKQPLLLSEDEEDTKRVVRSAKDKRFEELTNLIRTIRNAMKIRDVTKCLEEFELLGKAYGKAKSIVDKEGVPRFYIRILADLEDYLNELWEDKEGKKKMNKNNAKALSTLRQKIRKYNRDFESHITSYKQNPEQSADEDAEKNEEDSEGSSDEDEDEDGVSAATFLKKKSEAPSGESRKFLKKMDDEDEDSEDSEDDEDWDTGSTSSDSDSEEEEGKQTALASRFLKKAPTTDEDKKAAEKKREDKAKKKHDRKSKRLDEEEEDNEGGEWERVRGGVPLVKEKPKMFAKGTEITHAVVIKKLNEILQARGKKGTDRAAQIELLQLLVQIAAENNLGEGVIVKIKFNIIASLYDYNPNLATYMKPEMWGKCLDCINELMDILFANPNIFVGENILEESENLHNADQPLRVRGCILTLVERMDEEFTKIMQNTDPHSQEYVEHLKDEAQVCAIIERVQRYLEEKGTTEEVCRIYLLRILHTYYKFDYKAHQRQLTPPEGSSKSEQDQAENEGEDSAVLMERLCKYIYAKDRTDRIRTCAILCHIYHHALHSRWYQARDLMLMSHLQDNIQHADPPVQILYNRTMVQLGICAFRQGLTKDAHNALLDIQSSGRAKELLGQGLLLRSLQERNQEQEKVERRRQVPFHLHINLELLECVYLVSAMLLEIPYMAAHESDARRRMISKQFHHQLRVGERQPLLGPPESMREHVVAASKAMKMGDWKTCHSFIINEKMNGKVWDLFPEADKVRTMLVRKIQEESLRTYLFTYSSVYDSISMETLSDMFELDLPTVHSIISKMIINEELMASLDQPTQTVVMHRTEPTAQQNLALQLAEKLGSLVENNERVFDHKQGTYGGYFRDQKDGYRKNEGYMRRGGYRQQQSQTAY
UniProt O15371: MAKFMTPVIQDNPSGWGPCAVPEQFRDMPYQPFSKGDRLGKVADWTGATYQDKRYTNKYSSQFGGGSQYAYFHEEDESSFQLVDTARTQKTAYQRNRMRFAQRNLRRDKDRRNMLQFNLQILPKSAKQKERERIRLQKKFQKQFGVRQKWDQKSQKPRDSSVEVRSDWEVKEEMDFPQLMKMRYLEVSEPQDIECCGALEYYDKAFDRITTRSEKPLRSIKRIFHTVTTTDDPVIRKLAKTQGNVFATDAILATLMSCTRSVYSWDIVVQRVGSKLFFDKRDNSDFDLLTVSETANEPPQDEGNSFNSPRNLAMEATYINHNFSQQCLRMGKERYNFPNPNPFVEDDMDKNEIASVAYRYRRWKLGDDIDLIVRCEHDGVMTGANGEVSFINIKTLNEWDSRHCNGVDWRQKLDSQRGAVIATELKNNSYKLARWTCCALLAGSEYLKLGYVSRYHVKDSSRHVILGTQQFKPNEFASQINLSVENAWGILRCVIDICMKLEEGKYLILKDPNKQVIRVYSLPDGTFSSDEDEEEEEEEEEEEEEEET
UniProt P60228: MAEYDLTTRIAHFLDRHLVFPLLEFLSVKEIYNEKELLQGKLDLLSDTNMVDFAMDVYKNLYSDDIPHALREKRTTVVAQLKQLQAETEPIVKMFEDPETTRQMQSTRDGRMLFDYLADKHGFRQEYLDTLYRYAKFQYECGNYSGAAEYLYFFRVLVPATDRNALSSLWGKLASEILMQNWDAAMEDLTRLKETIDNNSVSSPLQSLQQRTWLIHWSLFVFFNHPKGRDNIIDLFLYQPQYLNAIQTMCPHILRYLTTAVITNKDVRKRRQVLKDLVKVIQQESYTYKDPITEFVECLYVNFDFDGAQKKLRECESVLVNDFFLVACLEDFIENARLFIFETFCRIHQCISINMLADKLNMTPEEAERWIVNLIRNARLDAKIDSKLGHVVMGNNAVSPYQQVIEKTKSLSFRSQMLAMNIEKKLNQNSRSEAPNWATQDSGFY
UniProt O00303: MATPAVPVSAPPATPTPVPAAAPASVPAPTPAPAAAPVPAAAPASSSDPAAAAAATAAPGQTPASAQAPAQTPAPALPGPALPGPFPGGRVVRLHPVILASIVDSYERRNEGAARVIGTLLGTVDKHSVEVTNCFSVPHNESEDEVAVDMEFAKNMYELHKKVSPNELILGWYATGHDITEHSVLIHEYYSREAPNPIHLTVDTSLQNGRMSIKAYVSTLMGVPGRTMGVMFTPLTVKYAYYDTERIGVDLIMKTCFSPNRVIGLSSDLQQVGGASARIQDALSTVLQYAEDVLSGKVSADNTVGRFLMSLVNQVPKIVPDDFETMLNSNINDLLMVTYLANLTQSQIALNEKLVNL
UniProt O75821: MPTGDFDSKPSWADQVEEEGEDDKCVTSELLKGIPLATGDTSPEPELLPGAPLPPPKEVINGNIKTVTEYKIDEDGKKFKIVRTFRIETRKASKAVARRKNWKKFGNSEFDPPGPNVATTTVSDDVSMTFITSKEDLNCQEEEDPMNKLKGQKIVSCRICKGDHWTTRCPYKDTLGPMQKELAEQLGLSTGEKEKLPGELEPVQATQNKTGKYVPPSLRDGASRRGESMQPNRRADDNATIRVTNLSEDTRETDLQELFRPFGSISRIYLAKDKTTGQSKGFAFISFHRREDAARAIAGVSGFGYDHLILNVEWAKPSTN
UniProt O15372: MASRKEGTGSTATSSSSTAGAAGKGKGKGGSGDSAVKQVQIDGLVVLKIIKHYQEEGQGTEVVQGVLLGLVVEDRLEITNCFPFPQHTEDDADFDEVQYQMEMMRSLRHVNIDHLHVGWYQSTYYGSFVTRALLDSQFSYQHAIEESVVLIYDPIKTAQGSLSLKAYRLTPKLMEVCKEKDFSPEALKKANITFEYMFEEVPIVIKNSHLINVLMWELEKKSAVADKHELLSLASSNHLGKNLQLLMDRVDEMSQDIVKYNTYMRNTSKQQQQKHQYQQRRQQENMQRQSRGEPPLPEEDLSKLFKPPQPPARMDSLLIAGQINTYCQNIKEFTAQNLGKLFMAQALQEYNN
UniProt Q13347: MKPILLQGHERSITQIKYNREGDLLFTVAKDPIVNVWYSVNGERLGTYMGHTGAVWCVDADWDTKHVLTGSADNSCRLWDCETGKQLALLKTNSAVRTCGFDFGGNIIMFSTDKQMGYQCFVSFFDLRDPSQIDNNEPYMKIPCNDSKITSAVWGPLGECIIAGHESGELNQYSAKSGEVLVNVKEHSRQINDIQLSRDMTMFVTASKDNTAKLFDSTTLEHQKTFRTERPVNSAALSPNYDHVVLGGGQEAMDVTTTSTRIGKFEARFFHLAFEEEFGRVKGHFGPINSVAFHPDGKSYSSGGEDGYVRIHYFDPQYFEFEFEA
UniProt Q9UBQ5: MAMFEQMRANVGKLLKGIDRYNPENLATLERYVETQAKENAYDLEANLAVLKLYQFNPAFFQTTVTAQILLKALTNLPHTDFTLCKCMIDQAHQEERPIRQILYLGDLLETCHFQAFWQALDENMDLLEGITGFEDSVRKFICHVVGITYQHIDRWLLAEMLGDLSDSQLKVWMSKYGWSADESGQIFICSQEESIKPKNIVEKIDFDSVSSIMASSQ
UniProt Q14240: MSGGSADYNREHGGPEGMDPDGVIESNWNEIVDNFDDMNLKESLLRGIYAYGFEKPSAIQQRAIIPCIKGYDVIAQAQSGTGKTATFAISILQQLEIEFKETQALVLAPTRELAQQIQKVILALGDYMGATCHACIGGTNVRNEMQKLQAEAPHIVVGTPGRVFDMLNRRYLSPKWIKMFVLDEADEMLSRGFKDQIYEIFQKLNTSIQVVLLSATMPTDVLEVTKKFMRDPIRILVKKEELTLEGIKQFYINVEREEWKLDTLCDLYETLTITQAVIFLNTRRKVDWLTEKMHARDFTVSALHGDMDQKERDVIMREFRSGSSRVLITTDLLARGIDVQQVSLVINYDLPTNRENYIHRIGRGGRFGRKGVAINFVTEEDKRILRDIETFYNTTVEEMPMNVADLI
UniProt O43432: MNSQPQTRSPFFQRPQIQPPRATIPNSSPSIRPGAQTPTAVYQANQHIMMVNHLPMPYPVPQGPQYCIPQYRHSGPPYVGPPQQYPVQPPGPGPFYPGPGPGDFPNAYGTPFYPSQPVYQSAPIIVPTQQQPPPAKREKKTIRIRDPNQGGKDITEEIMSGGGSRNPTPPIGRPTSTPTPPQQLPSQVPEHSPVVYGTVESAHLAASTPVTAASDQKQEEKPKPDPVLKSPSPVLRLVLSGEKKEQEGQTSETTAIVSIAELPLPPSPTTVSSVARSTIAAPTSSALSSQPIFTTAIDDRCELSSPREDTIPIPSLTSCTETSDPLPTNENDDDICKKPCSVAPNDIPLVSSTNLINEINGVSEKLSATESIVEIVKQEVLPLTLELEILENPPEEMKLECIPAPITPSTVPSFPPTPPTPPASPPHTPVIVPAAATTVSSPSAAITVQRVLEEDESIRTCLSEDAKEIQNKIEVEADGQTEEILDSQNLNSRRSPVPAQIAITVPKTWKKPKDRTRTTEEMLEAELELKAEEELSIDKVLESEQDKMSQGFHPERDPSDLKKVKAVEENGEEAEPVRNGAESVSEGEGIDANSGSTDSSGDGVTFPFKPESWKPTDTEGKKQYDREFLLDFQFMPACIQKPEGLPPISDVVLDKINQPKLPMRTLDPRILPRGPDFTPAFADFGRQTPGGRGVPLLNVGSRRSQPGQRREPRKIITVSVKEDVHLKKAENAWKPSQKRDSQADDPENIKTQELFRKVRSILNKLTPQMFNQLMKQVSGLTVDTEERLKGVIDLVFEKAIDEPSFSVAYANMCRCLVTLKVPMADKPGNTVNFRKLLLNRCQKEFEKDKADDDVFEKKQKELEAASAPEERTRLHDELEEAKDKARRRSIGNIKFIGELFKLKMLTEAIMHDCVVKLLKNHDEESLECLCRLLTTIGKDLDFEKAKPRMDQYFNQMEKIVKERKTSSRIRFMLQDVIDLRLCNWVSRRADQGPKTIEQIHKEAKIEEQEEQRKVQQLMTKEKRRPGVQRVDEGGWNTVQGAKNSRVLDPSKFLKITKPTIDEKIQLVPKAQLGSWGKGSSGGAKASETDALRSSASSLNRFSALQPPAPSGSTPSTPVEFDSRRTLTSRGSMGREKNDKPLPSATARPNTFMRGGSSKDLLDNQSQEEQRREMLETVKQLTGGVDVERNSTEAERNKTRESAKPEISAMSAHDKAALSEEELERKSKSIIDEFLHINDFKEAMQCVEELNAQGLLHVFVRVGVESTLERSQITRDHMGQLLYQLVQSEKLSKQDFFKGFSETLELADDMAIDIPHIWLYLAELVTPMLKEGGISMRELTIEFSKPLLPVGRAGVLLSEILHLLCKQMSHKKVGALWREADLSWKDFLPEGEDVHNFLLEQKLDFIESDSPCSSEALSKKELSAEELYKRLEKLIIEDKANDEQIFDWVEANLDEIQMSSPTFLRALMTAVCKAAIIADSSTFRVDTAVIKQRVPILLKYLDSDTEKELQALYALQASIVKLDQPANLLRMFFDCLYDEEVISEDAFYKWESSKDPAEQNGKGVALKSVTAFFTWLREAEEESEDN

| Substance | binding |
| --- | --- |
| eIF3 subunit B (from UniProt P55884 1-814) | binds |
| eIF3 subunit C (from UniProt Q99613 1-913) | binds |
| eIF3 subunit D (from UniProt O15371 1-548) | binds |
| eIF3 subunit E (from UniProt P60228 1-445) | binds |
| eIF3 subunit F (from UniProt O00303 1-357) | binds |
| eIF3 subunit G (from UniProt O75821 1-320) | binds |
| eIF3 subunit H (from UniProt O15372 1-352) | binds |
| eIF3 subunit I (from UniProt Q13347 1-325) | binds |
| eIF3 subunit K (from UniProt Q9UBQ5 1-218) | binds |
| eIF3 subunit L (from UniProt Q9Y262 1-564) | binds |
| eIF4AII (from UniProt Q14240 1-407) | binds |
| eIF4GII (from UniProt O43432 1-1585) | binds |

From article PMC4118132
